Results: publication PMC5789818

Sequences of proteins named here, by UniProt entry; tags and fusion partners are left off. Residues count along the entry.
UniProt Q00610: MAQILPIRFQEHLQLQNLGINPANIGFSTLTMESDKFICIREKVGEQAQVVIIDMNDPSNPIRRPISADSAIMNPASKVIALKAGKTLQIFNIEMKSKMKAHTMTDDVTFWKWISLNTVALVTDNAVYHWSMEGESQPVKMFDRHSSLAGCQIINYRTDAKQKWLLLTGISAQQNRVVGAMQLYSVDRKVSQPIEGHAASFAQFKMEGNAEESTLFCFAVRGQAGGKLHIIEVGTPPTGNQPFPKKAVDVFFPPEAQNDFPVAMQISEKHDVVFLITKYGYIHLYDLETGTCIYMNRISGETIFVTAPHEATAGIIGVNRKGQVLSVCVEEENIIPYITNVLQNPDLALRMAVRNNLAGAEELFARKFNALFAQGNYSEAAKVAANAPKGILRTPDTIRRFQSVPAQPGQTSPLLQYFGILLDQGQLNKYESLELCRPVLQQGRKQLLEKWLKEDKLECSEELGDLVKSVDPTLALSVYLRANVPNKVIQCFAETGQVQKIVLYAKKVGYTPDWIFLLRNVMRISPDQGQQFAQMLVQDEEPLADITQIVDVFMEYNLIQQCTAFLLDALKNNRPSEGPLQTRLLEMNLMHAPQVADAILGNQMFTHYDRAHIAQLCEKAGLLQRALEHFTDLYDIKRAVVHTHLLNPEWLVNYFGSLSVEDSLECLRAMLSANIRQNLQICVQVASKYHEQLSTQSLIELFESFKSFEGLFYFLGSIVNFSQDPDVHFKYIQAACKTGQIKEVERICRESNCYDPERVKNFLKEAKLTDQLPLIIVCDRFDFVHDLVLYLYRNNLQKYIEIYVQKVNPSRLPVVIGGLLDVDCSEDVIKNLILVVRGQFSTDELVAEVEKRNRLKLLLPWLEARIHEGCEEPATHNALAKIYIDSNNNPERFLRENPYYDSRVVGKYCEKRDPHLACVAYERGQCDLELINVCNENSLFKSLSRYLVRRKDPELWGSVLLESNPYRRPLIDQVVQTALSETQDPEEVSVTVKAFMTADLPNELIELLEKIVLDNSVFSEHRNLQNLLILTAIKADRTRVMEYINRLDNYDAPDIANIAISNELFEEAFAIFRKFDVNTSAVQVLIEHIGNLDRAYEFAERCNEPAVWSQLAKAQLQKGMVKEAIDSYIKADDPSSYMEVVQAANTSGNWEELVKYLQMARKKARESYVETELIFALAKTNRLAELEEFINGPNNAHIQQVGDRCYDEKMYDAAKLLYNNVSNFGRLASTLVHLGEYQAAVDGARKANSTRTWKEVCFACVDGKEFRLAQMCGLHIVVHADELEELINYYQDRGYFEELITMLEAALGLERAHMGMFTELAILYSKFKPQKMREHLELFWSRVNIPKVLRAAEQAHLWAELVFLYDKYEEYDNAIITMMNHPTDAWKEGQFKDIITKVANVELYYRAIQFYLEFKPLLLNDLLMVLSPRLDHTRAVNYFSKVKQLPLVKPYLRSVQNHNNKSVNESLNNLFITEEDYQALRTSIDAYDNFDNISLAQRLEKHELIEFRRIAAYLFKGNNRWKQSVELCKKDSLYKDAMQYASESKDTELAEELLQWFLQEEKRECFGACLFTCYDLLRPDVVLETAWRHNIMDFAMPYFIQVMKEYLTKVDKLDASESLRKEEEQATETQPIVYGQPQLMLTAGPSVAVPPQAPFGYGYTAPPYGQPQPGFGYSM
UniProt P08238: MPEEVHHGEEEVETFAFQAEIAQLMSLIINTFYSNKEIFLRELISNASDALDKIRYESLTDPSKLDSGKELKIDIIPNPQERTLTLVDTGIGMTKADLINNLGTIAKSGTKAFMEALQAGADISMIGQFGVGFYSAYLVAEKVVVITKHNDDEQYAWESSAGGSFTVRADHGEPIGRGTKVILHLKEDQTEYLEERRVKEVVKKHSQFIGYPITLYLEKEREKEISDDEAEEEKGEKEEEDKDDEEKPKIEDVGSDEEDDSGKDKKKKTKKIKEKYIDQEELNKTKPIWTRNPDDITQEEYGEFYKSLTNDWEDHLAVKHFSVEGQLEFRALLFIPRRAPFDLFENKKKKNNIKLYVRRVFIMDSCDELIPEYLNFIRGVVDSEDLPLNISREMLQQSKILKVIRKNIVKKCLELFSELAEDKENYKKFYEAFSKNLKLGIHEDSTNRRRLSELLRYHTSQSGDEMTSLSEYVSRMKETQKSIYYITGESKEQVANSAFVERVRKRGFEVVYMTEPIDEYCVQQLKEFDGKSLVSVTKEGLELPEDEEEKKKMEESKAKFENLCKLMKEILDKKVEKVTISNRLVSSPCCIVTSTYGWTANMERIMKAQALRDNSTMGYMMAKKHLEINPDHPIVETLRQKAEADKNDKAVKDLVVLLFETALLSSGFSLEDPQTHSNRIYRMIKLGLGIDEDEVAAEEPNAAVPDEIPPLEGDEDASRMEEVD
UniProt Q92522: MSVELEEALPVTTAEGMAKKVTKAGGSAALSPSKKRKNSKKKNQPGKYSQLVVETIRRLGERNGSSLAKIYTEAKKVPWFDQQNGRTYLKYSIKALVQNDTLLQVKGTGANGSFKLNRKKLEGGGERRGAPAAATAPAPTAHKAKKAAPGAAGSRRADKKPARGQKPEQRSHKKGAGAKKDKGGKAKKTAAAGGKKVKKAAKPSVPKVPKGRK
UniProt O43684: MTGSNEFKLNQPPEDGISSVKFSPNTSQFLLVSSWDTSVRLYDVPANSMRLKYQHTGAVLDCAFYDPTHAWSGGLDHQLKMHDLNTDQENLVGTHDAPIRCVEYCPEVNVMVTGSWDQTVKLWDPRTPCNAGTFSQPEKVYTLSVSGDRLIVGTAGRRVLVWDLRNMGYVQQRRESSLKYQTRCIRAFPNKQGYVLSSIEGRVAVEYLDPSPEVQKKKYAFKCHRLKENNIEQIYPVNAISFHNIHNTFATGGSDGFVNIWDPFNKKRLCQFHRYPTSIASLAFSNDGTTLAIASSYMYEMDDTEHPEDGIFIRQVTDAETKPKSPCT
UniProt P62258: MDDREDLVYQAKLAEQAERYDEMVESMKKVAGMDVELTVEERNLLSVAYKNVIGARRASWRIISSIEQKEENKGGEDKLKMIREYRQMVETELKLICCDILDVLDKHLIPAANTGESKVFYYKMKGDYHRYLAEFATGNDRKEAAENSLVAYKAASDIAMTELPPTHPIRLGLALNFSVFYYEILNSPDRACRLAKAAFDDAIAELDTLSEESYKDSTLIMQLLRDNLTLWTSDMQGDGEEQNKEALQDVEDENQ
UniProt Q01844: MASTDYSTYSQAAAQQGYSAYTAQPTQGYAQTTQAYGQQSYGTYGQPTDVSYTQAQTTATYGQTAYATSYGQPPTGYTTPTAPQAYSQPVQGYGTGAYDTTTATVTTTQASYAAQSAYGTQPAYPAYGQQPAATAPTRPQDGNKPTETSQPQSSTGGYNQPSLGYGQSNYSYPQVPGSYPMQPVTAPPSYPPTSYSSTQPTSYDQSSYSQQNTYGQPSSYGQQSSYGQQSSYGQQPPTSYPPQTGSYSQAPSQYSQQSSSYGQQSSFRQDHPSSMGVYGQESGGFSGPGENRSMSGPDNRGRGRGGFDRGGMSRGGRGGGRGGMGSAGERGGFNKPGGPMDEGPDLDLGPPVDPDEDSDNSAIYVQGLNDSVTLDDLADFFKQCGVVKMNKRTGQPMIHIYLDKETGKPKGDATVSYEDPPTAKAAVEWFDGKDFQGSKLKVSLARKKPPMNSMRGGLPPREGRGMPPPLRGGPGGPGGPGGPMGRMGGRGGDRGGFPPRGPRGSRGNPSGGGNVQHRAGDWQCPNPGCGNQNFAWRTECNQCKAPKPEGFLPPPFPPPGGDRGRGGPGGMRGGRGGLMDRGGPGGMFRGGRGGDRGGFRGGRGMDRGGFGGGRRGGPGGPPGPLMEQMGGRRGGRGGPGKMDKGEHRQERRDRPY
UniProt P14625, residues 22-803: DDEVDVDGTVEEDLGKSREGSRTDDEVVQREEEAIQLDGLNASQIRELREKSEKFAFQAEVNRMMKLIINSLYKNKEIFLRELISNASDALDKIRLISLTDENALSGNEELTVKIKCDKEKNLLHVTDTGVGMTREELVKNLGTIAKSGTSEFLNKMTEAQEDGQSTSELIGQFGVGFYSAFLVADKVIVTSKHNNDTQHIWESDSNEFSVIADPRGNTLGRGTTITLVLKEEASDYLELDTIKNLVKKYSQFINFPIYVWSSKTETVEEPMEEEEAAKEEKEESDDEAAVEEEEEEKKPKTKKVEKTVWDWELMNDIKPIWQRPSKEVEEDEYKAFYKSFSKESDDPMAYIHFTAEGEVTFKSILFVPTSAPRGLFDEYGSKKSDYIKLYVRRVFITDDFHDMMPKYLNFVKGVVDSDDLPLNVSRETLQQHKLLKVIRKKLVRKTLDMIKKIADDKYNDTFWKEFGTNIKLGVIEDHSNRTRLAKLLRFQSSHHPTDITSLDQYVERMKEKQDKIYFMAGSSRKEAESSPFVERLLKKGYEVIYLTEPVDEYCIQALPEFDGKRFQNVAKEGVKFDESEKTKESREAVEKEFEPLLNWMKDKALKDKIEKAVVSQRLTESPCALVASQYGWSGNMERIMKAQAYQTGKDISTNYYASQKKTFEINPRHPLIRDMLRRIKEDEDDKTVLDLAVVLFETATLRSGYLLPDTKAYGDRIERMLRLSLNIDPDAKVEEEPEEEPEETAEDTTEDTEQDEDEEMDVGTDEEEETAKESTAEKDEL
UniProt P46940: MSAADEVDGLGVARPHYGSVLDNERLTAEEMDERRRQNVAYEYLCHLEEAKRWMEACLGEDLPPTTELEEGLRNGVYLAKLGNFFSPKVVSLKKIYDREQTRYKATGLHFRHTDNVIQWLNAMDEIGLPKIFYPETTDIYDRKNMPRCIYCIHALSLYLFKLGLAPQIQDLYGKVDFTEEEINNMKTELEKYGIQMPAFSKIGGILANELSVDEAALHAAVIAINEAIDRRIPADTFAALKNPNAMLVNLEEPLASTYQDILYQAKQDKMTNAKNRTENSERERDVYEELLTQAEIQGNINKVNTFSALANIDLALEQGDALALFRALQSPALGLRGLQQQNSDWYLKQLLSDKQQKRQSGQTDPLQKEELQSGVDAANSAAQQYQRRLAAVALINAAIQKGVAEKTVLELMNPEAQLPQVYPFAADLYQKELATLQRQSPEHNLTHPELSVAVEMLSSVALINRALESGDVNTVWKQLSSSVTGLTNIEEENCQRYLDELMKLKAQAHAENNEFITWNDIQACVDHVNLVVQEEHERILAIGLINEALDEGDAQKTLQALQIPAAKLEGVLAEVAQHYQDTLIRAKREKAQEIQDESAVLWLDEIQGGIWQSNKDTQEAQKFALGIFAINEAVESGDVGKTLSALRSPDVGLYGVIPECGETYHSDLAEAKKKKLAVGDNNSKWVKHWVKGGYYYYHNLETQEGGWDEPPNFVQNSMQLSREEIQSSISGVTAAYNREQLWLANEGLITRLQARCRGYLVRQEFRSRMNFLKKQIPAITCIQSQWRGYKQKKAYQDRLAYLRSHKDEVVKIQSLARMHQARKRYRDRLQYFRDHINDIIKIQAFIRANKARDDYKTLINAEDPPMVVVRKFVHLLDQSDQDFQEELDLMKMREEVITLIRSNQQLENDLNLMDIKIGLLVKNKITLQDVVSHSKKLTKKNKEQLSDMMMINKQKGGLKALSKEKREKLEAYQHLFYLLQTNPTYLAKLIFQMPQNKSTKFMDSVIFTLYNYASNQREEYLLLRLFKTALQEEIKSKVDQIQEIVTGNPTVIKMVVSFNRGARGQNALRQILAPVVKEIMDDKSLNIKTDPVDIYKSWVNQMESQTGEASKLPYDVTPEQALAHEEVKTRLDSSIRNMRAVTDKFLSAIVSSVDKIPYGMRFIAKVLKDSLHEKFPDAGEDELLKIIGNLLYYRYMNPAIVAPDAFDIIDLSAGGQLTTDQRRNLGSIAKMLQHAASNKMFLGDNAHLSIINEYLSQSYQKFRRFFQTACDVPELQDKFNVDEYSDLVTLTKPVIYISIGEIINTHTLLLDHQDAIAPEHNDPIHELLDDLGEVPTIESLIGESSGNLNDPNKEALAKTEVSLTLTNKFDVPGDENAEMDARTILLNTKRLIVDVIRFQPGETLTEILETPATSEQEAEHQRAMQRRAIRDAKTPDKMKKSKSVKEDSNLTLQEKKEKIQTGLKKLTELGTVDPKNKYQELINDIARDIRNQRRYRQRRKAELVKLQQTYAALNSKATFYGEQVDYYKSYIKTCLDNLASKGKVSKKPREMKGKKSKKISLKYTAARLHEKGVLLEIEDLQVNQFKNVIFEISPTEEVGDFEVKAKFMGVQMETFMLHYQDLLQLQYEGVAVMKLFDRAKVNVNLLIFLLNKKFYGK

These substances were tested against Human karyopherin beta-1/importin beta-1 (human (endogenous in HeLa)) (UniProt Q14974) (assay: affinity purification with mass spectrometry; importin beta-1 captured with antibody Sigma I2534 cross-linked to Protein G-Sepharose from extract of RO3306-synchronized and released mitotic HeLa cells; lysis buffer 50 mM Tris HCl pH 8.0, 150 mM NaCl, 1% NP40; overnight at 4 °C; LTQ-Orbitrap …; mouse IgG as control).

binding, binds:
Clathrin h)eavy chain 1 (from UniProt Q00610 1-1675)
Tubulin beta chain (from UniProt P07437 1-444)
Probable ATP-dependent RNA helicase DDDX17 (from UniProt Q92841 1-729)
Heat shock protein HSP 90-beta (from UniProt P08238 1-724)
Histone H1x (from UniProt Q92522 1-213)
Mitotic checkpoint protein BUB3 (from UniProt O43684 1-328)
14-3-3 protein epsilon (from UniProt P62258 1-255)
RNA-binding protein EWS (from UniProt Q01844 1-656)
Probable ATP-dependent RNA helicase DDDX5 (from UniProt P17844 1-614)
Endoplasmin (from UniProt P14625 22-803)
Ras GTPase-activating-like protein IQGAP1 (from UniProt P46940 1-1657)
Heterogeneous nuclear ribonucleoprotein K (from UniProt P61978 1-463)

No constants are given. Whether binding was seen depends on the method and setting. In cells and extracts the contact can be indirect. These calls come from enrichment with a bait or labelling near it, and not all partners need be listed.
